# Experimental data taken from the supplement of paper PMC10849652.
# Sequences of proteins named here, by UniProt entry; tags and fusion partners are left off. A change or cut given only in a name is not applied to a line headed by its entry.
# UniProt O94888: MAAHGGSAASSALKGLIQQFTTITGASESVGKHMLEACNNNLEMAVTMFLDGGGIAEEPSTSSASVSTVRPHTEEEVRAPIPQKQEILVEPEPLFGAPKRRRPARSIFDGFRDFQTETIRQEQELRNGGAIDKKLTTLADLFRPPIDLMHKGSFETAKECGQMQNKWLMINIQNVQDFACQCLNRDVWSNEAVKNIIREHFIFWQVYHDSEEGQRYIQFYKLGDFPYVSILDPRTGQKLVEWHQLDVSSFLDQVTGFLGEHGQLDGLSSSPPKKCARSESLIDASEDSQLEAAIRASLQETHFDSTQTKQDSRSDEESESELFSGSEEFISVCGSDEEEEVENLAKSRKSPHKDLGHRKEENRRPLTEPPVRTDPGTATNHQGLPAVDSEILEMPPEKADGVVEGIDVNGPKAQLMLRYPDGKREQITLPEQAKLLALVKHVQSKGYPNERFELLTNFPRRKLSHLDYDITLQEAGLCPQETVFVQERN
# UniProt O94966: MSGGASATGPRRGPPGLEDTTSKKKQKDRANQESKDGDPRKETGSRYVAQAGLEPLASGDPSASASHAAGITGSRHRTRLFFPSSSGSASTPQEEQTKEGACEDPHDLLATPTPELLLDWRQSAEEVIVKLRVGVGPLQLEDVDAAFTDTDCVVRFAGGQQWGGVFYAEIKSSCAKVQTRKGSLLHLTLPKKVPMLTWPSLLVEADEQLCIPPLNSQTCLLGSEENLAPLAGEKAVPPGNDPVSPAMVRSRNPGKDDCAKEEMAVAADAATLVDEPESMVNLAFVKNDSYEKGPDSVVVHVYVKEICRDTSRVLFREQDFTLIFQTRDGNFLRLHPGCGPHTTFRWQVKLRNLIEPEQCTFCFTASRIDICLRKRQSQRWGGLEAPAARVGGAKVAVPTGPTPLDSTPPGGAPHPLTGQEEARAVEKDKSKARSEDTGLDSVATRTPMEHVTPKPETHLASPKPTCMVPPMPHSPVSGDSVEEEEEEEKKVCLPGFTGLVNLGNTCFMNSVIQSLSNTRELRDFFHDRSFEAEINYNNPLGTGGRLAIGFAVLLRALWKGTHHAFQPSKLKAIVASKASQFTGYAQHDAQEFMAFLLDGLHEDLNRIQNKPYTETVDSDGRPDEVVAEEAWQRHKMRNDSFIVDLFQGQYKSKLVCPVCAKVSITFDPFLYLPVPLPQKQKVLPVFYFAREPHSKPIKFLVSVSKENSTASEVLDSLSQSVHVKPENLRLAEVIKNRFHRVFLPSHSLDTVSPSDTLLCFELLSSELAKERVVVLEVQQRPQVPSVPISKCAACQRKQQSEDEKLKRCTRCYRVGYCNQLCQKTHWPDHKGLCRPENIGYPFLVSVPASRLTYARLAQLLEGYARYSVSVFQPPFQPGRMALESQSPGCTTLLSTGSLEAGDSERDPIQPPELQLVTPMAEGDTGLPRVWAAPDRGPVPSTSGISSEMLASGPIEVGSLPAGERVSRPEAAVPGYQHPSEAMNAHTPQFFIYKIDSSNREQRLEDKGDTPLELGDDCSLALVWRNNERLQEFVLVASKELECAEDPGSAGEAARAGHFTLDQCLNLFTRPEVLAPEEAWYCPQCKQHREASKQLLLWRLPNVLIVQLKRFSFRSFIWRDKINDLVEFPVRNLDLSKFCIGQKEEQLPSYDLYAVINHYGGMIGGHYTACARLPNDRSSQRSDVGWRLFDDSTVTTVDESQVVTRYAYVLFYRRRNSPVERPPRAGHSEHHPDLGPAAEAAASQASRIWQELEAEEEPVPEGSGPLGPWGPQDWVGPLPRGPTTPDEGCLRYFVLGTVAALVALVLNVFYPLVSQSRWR
# UniProt O75379: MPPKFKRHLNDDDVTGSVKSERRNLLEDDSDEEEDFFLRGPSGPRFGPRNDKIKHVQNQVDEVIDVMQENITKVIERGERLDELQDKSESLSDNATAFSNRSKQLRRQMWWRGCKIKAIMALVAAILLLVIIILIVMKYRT
# UniProt Q9NWZ5: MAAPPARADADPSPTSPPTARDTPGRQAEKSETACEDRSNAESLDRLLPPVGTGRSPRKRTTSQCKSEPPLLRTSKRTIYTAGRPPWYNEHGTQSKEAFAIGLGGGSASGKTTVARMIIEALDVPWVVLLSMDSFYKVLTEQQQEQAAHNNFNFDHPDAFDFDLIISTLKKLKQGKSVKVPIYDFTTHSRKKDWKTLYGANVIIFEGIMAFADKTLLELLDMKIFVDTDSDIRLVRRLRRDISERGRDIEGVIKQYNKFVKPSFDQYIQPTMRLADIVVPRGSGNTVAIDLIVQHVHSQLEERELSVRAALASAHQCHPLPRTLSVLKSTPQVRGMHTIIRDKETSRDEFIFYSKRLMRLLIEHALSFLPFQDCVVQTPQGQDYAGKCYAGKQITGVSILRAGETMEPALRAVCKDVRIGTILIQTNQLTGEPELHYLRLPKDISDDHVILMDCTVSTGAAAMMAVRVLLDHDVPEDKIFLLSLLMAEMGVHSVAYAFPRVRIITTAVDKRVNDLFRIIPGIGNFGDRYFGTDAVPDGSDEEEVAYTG
# UniProt P26640: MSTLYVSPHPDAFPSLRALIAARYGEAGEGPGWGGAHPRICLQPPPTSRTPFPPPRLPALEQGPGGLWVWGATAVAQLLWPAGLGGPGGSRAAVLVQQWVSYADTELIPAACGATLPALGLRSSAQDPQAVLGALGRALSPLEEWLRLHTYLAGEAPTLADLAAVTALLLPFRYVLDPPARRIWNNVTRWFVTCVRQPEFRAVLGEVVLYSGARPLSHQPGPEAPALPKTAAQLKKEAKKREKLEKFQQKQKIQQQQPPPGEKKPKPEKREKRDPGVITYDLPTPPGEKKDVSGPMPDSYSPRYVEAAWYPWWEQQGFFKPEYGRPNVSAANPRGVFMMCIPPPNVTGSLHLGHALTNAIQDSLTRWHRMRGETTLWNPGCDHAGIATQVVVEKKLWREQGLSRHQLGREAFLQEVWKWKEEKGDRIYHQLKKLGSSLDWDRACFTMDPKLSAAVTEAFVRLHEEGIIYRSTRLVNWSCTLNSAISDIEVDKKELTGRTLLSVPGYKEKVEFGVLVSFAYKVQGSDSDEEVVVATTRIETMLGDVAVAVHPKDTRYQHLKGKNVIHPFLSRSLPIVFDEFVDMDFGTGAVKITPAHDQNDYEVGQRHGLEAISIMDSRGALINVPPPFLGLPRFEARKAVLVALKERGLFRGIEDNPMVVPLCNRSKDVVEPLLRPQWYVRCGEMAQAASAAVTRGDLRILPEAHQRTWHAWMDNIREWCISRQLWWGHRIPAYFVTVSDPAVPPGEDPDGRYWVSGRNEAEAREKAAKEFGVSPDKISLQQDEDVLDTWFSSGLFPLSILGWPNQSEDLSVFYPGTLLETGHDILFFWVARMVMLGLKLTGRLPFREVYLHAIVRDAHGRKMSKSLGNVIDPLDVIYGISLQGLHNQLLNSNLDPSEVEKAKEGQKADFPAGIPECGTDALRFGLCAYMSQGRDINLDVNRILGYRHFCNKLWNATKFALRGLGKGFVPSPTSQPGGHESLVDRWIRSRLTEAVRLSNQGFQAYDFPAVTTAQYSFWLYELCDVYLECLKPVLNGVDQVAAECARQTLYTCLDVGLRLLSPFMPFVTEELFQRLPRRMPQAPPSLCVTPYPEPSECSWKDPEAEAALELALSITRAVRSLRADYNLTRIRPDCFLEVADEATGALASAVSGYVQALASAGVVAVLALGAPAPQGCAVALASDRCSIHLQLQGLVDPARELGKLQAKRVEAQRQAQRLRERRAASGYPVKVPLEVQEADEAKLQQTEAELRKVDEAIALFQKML
# UniProt Q96BW1: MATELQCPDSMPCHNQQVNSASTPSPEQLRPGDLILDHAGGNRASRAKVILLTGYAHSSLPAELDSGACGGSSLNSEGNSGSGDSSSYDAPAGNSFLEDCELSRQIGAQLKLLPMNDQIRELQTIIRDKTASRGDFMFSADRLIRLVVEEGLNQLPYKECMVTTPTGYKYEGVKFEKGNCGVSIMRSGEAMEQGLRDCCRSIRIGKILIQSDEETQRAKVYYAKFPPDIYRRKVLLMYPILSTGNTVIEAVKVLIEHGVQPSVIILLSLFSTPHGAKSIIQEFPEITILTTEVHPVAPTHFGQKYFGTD
# UniProt Q9P2Y5: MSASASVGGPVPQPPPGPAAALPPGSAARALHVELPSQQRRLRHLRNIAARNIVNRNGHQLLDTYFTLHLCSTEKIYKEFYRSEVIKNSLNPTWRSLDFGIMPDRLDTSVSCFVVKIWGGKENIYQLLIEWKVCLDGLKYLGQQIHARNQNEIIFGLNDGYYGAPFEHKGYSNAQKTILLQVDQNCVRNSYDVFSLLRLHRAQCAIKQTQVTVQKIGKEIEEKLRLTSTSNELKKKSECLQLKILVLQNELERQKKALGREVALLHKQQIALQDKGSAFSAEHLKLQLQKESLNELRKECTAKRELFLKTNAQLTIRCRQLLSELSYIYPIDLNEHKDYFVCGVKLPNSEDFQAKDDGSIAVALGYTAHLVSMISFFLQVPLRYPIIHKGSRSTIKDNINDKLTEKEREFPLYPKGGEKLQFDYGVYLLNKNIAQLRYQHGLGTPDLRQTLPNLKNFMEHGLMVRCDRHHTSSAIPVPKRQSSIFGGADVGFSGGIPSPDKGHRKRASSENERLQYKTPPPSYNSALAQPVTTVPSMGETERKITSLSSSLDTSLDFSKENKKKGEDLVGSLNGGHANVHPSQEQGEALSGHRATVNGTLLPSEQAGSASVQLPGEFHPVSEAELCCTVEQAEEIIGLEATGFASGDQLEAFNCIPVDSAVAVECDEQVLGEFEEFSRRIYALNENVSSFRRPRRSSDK
# UniProt Q9NUQ7: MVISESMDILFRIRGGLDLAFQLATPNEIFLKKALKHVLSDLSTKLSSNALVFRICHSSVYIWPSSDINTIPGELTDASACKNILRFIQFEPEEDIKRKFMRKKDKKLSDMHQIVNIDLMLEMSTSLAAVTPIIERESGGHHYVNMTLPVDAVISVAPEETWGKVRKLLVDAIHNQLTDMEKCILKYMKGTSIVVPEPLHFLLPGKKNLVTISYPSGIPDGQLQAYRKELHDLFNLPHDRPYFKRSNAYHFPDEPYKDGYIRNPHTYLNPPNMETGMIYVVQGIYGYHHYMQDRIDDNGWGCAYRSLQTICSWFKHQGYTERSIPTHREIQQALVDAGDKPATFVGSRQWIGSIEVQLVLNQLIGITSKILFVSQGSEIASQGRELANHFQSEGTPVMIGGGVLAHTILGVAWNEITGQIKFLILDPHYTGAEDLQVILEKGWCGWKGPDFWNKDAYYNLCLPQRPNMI
# UniProt P15374: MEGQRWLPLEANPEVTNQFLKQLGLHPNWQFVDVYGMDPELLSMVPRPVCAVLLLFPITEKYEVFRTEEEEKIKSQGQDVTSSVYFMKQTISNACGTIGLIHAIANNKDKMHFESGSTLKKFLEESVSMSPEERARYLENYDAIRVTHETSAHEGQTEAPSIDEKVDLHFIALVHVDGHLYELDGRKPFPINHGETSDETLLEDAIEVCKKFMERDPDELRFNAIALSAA
# UniProt Q92900: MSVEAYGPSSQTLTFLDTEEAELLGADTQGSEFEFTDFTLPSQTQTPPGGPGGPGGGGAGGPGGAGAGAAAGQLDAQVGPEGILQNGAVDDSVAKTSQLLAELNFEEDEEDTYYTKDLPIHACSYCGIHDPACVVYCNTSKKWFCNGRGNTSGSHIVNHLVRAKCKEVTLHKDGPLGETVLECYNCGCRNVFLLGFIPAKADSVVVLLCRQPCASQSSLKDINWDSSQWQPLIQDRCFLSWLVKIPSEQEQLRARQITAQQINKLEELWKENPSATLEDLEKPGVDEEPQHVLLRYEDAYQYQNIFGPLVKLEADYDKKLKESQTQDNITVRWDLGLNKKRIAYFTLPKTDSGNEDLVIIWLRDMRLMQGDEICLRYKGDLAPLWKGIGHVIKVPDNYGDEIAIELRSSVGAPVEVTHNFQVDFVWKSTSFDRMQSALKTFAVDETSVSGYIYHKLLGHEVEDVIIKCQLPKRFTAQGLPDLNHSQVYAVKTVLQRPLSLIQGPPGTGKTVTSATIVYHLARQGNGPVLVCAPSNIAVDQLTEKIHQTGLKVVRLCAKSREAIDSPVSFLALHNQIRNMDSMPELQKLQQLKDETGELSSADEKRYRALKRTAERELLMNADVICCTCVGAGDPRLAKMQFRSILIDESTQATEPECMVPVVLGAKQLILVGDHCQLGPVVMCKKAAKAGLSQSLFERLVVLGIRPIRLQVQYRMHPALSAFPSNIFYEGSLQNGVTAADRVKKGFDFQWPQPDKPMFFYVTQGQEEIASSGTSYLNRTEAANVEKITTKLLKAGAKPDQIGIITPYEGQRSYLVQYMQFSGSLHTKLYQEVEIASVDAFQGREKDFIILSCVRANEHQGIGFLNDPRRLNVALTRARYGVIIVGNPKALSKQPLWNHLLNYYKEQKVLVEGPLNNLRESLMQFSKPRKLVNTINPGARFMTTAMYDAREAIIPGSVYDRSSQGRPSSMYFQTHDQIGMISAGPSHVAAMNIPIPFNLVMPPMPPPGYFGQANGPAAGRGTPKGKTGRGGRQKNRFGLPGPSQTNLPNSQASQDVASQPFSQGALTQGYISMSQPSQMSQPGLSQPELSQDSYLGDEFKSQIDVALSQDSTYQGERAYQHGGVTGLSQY
# The other results are listed elsewhere or left out.
# Compound: CN(CCOC1=CC=C(C=C1)C[C@H]2C(=O)NC(=O)S2)C3=CC=CC=N3 (racemic) [rosiglitazone]
# Test: log2 fold change, soluble protein after heating vs DMSO (PISA); higher = thermal stabilisation; K562 cells, 10 uM, 30 min; active = over 0.2 and 3.5 SD of the protein, either way, in both replicates (recomputed)
# Procedure, shortened: (§1)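 K562 cells at 2×10^6 cells/mL were treated for 30 min with 10 μM compound, and aliquots were heated for 3 min over 48°C-58°C before pooling. Extraction used PBS with 0.5% NP-40 at 4°C, and soluble protein was the supernatant after 21,000xg for 90 min, measured by TMTpro 16plex LC-MS/MS with channel sums equalised. Thermal stability values, relative to control samples and from duplicates, are log2 fold changes.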
row,Target,log2 fold change
1,UMPS (UniProt P11172),inactive: 0.001
2,UBXN7 (UniProt O94888),inactive: 0.019
3,UBQLN1 (UniProt Q9UMX0),inactive: -0.021
4,USP22 (UniProt Q9UPT9),inactive: 0.121
5,UGT8 (UniProt Q16880),inactive: -0.05
6,VAMP2 (UniProt P63027),inactive: 0.01
7,UXS1 isoform 2 (UniProt Q8NBZ7),inactive: -0.05
8,VCP (UniProt P55072),inactive: -0.01
9,USP19 isoform 6 (UniProt O94966),inactive: 0.027
10,UTP15 (UniProt Q8TED0),inactive: -0.096
11,UBL4A (UniProt P11441),inactive: 0.029
12,UBE3C (UniProt Q15386),inactive: 0.025
13,VAMP4 (UniProt O75379),inactive: -0.047
14,UQCC1 (UniProt Q9NVA1),inactive: -0.023
15,UCKL1 (UniProt Q9NWZ5),inactive: 0.025
16,UQCRB (UniProt P14927),inactive: 0.005
17,VARS (UniProt P26640),inactive: 0.027
18,UBL5 (UniProt Q9BZL1),inactive: 0.027
19,USP20 (UniProt Q9Y2K6),inactive: 0.19
20,USP30 (UniProt Q70CQ3),inactive: 0.011
21,UPRT (UniProt Q96BW1),inactive: 0.022
22,UVRAG (UniProt Q9P2Y5),inactive: -0.022
23,UFSP2 (UniProt Q9NUQ7),inactive: 0.118
24,UQCRQ (UniProt O14949),inactive: -0.029
25,UBQLN2 (UniProt Q9UHD9),inactive: 0
26,UQCRC2 (UniProt P22695),inactive: -0.004
27,UNC93B1 (UniProt Q9H1C4),inactive: 0.064
28,UCHL3 (UniProt P15374),inactive: 0.022
29,VBP1 (UniProt P61758),inactive: -0.009
30,UPF1 (UniProt Q92900),inactive: 0.018

# Compound: CN1C2=C(C3=C1C(=O)N(N=C3)CC4=CC(=CC=C4)N)SC(=C2)S(=O)C
# Test: as above
# Procedure, shortened: as §1
row,Target,log2 fold change
1,UMPS (UniProt P11172),inactive: -0.047
2,USP9X (UniProt Q93008),inactive: -0.028
3,UBXN7 (UniProt O94888),inactive: -0.053
4,USP6NL isoform 2 (UniProt Q92738),inactive: 0.072
5,UBQLN1 (UniProt Q9UMX0),inactive: 0.004
6,USP22 (UniProt Q9UPT9),inactive: -0.001
7,UGT8 (UniProt Q16880),inactive: -0.01
8,VAMP2 (UniProt P63027),inactive: -0.027
9,UXS1 isoform 2 (UniProt Q8NBZ7),inactive: 0.04
10,VCP (UniProt P55072),inactive: -0.024
11,USP19 isoform 6 (UniProt O94966),inactive: -0.084
12,UTP15 (UniProt Q8TED0),inactive: 0.21
13,UBL4A (UniProt P11441),inactive: -0.014
14,UBE3C (UniProt Q15386),inactive: -0.01
15,VAMP4 (UniProt O75379),inactive: -0.027
16,UQCC1 (UniProt Q9NVA1),inactive: -0.079
17,UCKL1 (UniProt Q9NWZ5),inactive: -0.045
18,UQCRB (UniProt P14927),inactive: -0.054
19,VARS (UniProt P26640),inactive: 0.004
20,UBL5 (UniProt Q9BZL1),inactive: 0.006

row,Target,log2 fold change
1,USP20 (UniProt Q9Y2K6),inactive: 0.221
2,USP30 (UniProt Q70CQ3),inactive: 0.084
3,UPRT (UniProt Q96BW1),inactive: 0.034
4,UPF3B (UniProt Q9BZI7),inactive: 0.28
5,VAMP7 (UniProt P51809),inactive: -0.07
6,UVRAG (UniProt Q9P2Y5),inactive: -0.008
7,UFSP2 (UniProt Q9NUQ7),inactive: -0.015
8,UQCRQ (UniProt O14949),inactive: -0.056
9,USP15 (UniProt Q9Y4E8),inactive: -0.006
10,UBQLN2 (UniProt Q9UHD9),inactive: -0.01
11,UGDH (UniProt O60701),inactive: -0.113
12,UQCRC2 (UniProt P22695),inactive: -0.024
13,UNC93B1 (UniProt Q9H1C4),inactive: -0.142
14,USP7 (UniProt Q93009),inactive: -0.005
15,UBQLN3 (UniProt Q9H347),inactive: -0.007
16,UCHL3 (UniProt P15374),inactive: -0.023
17,VBP1 (UniProt P61758),inactive: -0.031
18,UPF1 (UniProt Q92900),inactive: -0.027
19,UBLCP1 (UniProt Q8WVY7),inactive: -0.024
20,UXT isoform 2 (UniProt Q9UBK9),inactive: -0.052

# Compound: CN1CCC(CNc2ccc3ncc(-c4cccc(OC(F)(F)F)c4)n3n2)CC1
# Test: as above
# Procedure, shortened: as §1
row,Target,log2 fold change
1,UMPS (UniProt P11172),inactive: -0.074
2,USP9X (UniProt Q93008),inactive: -0.21
3,UBXN7 (UniProt O94888),inactive: -0.022
4,UBQLN1 (UniProt Q9UMX0),inactive: 0.029
5,UGT8 (UniProt Q16880),inactive: 0.219
6,VAMP2 (UniProt P63027),inactive: 0.308
7,VCP (UniProt P55072),inactive: 0.012
8,USP19 isoform 6 (UniProt O94966),inactive: 0.016
9,UTP15 (UniProt Q8TED0),inactive: 0.354
10,UBL4A (UniProt P11441),inactive: -0.031
11,UBE3C (UniProt Q15386),inactive: -0.003
12,VAMP4 (UniProt O75379),inactive: -0.126
13,UQCC1 (UniProt Q9NVA1),inactive: -0.085
14,UCKL1 (UniProt Q9NWZ5),inactive: -0.017
15,UQCRB (UniProt P14927),inactive: 0.025
16,VARS (UniProt P26640),inactive: -0.035
17,UBL5 (UniProt Q9BZL1),inactive: 0.056
18,UPRT (UniProt Q96BW1),inactive: -0.067

row,Target,log2 fold change
1,UPF3B (UniProt Q9BZI7),inactive: 0.341
2,VAMP7 (UniProt P51809),inactive: -0.181
3,UVRAG (UniProt Q9P2Y5),inactive: 0.063
4,UFSP2 (UniProt Q9NUQ7),inactive: 0.069
5,UQCRQ (UniProt O14949),inactive: 0.155
6,USP15 (UniProt Q9Y4E8),inactive: -0.129
7,UBQLN2 (UniProt Q9UHD9),inactive: 0.1
8,UGDH (UniProt O60701),inactive: -0.106
9,UQCRC2 (UniProt P22695),inactive: 0.03
10,UNC93B1 (UniProt Q9H1C4),inactive: 0
11,USP7 (UniProt Q93009),active: -0.351
12,UBQLN3 (UniProt Q9H347),inactive: -0.119
13,UCHL3 (UniProt P15374),inactive: -0.079
14,VBP1 (UniProt P61758),inactive: -0.041
15,UPF1 (UniProt Q92900),inactive: -0.026
16,UBLCP1 (UniProt Q8WVY7),inactive: 0.013
17,UXT isoform 2 (UniProt Q9UBK9),inactive: -0.126
